For one molecule, binding results are on record in patent US20170088620A1.

This assay deals with T1, huASGR-1 (64-291) ECD with 6xHis tag (human) (UniProt P07306).
T1 sequence: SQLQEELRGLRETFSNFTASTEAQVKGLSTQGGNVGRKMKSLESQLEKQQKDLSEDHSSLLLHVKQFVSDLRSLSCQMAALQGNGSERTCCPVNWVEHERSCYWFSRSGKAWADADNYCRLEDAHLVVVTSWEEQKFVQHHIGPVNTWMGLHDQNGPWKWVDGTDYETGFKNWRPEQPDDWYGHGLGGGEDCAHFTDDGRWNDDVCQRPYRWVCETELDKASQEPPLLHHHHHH
Kind of assay: co-purification of the untagged ASGR-2 with His-tagged ASGR-1 on Ni-Excel resin and size exclusion chromatography. (SEC sorts molecules by how far they enter the pores of the column.)

No constants are given. Whether binding was seen depends on the method and setting. In cells and extracts the contact can be indirect. Some entries that bind do so weakly or less than the wild type. Where a sequence is shown, tags or fusion partners need not be part of it.

B1: huASGR-2 (61-287) ECD without 6xHis tag (receptor, human, UniProt P07307-3 61-287, looked up)
chain: QSAQLQAELRSLKEAFSNFSSSTLTEVQAISTHGGSVGDKITSLGAKLEKQQQDLKADHDALLFHLKHFPVDLRFVACQMELLHSNGSQRTCCPVNWVEHQGSCYWFSHSGKAWAEAEKYCQLENAHLVVINSWEEQKFIVQHTNPFNTWIGLTDSDGSWKWVDGTDYRHNYKNWAVTQPDNWHGHELGGSEDCVEVQPDGRWNDDFCLQVYRWVCEKRRNATGEVA
Take B1: the binding entry is listed as “binds”.
